Measurements published in PMC12487887, “Global conformations of Pichia pastoris complex I are distinguished by the binding of a unique interdomain bridging subunit” (Science Advances, 2025).

Experiments:
Experiment in all cases: cryo-EM structure; Pp-CI purified in LMNG and reconstituted into cMSP26 nanodiscs with DOPC:DOPE:CDL and Q10, 10 mM Mops pH 7.5, 50 mM KCl; Titan Krios 300 kV; particles classified into four states (state 1 closed with NUQM 2.80 A; state 3 open without NUQM 3.34 A); both purified
[1] = biological target: ND2 core membrane subunit of Pichia pastoris complex I (Pichia pastoris (endogenous in strain X-33))
[2] = biological target: NDUFA11 supernumerary subunit of Pichia pastoris complex I (Pichia pastoris (endogenous in strain X-33))
[3] = biological target: NDUFB8 supernumerary subunit of Pichia pastoris complex I (Pichia pastoris (endogenous in strain X-33))

Measured: binding

B1: NUQM, supernumerary interdomain bridge subunit of Pichia pastoris complex I (protein, UniProt C4QXX8 27-190)
chain: ALATIRNDLKLNFRFKADVLEKNVIRSILAETKNLEIDNKDKDLDEFKLYDLLSKMIKQRQDSAAIYLKEGSPDRFRQTGWNELREVDYITKYLEALPVASAEEIEAKVEPIVQSVLEEEGELKSPKEIFSRIPWKVVNQDWQASEGAVKNTVLRLYNLYKTDA
binds: all assays above

These are yes or no findings as the source states them, for the method shown. A result given as binding can be weak or reduced; the word gives no strength.
